The nature of this data set: general procedure: Fmoc solid-phase peptide synthesis; 2-chlorotrityl chloride resin; HATU/DIPEA in NMP; cyclisation in solution with HATU/HOBt/DIPEA. Particulars: for crude yield: whole synthesis; for cyclisation yield: cyclisation step; for final HPLC purity / crude HPLC purity: UPLC-MS (UV).

Non-standard residues stand in square brackets, D forms with d. *: point of attachment. Asn(Trt) = N[C@@H](CC(=O)NC(c1ccccc1)(c1ccccc1)c1ccccc1)C(=O)O; dPhe(4-Cl) = N[C@H](Cc1ccc(Cl)cc1)C(=O)O; NMeN = CN[C@@H](CC(N)=O)C(=O)O; NMeL = CN[C@@H](CC(C)C)C(=O)O; dNMeL = CN[C@H](CC(C)C)C(=O)O; NMeV = CN[C@H](C(=O)O)C(C)C; dOrn = NCCC[C@@H](N)C(=O)O; Boc = CC(C)(C)OC(=O)*; tBu = CC(C)(C)*

On to “H2N-D-Leu-Val-Asn (Trt)-D-Orn(Boc)- Phe(4-OMe)-Leu- COOH”, for which the crude yield (scale 0.3 mmol) was 96%. With H-[Asn(Trt)][dOrn](Boc)W(Boc)I[dL]V-OH, the crude yield (scale 0.25 mmol) is listed as 89%. Under “scale 0.25 mmol”, H-[Asn(Trt)][dOrn](Boc)W(Boc)LIV-OH had a crude yield of 85%. Substance “H-[Asn(Trt)][dOrn](Boc)W(Boc)[dPhe(4-Cl)][dL]V-OH” displayed a crude yield (scale 0.25 mmol) of 80%.

For the substance H-[dA]V[Asn(Trt)][dOrn](Boc)W(Boc)L-OH, the crude yield (scale 0.3 mmol) is recorded as 72%. H-[dL]A[Asn(Trt)][dOrn](Boc)W(Boc)L-OH came in with a crude yield (scale 0.3 mmol) of 87%. In turn, H-[dL]I[Asn(Trt)][dOrn](Boc)W(Boc)L-OH came in with a crude yield (scale 0.3 mmol) of 88%.

Turning to H-[dL]VA[dOrn](Boc)W(Boc)L-OH, the crude yield (scale 0.3 mmol) was determined as 99%. On to H-[dL]V[Asn(Trt)][dOrn](Boc)AL-OH, for which the crude yield (scale 0.3 mmol) was found to be 103%.

H-[dL]V[Asn(Trt)][dOrn](Boc)W(Boc)A-OH returned a crude yield (scale 0.3 mmol) of 95%. For the substance H-[dL]V[Asn(Trt)][dOrn](Boc)W(Boc)L-OH, the crude yield (scale 0.3 mmol) worked out at 87%.

“H-[dPhe(4-Cl)]I[dOrn](Boc)[dOrn](Boc)W(Boc)L-OH”: the crude yield (scale 0.44 mmol) is given as 99%. For “H-[dPhe(4-Cl)]V[Asn(Trt)][dOrn](Boc)W(Boc)L-OH”, under “scale 0.1 mmol”, the crude yield is listed as 70%. In turn, “cyclo (D-Leu-Ile-Asn(Trt)-D-Arg (Pbf)-Trp(Boc)-Leu)” displayed a cyclisation yield of 70%. The same measure, in the same setting: the value for “cyclo (D-Leu-Ile-Asn(Trt)-D-Orn(Boc)-Trp(Boc)-Leu)” was 52%; that for “cyclo (D-Leu-Met-Asn(Trt)-D-Orn(Boc)-Trp(Boc)-Leu)” was 40%; that for “cyclo (Trp (Boc)-D-Orn(Boc)-Asn(Trt)-Val-D-Leu-Leu)” was 68%. As for “cyclo (Trp(Boc)-N-Me-Leu-D-Leu-N-Me-Val-Asn(Trt)-D-Orn(Boc))”, the cyclisation yield was found to be 73%. “cyclo(AL[dL]VN[dOrn]) (SMILES CC(C)C[C@@H]1NC(=O)[C@H](C)NC(=O)[C@@H](CCCN)NC(=O)[C@H](CC(N)=O)NC(=O)[C@H](C(C)C)NC(=O)[C@@H](CC(C)C)NC1=O)”: under “late stage modification step”, the step yield is 92% and the “final HPLC purity” value is on record as 90%. Taken in the same sequence, the figures for “cyclo(AN[dOrn]WL[dL]) (SMILES CC(C)C[C@@H]1NC(=O)[C@H](Cc2c[nH]c3ccccc23)NC(=O)[C@@H](CCCN)NC(=O)[C@H](CC(N)=O)NC(=O)[C@H](C)NC(=O)[C@@H](CC(C)C)NC1=O)” were 88% and 99.9%. As for “cyclo(A[dL]VN[dOrn]W) (SMILES CC(C)C[C@H]1NC(=O)[C@H](C)NC(=O)[C@H](Cc2c[nH]c3ccccc23)NC(=O)[C@@H](CCCN)NC(=O)[C@H](CC(N)=O)NC(=O)[C@H](C(C)C)NC1=O)”, for the setting “late stage modification step”, the step yield came to 80% and the “final HPLC purity” value amounted to 98%. Regarding cyclo(A[dOrn](Boc)[Asn(Trt)]V[dL]L), the cyclisation yield amounted to 43%.

Turning to “cyclo(A[dOrn]WL[dL]V) (SMILES CC(C)C[C@@H]1NC(=O)[C@H](Cc2c[nH]c3ccccc23)NC(=O)[C@@H](CCCN)NC(=O)[C@H](C)NC(=O)[C@H](C(C)C)NC(=O)[C@@H](CC(C)C)NC1=O)”, where the note is “late stage modification step”, the step yield was 80% and the “final HPLC purity” value came to 99.9%. Take “cyclo(D-Leu-Val-Asn(Trt)-D-Orn(Boc)-Phe(4-OMe)-Leu)”: the cyclisation yield was 41%. Substance “cyclo(D-Phe (4-Cl)-Ile-D-Orn(Boc)-D-Orn(Boc)-Trp(Boc)-Leu)” yielded a cyclisation yield of 55%. In the case of “cyclo(II[dOrn]WL[dL]) (SMILES CC[C@H](C)[C@@H]1NC(=O)[C@H]([C@@H](C)CC)NC(=O)[C@@H](CC(C)C)NC(=O)[C@H](CC(C)C)NC(=O)[C@H](Cc2c[nH]c3ccccc23)NC(=O)[C@@H](CCCN)NC1=O)”, where the note is “late stage modification step”, the step yield is recorded as 70% and the “final HPLC purity” value worked out at 99.9%. As for “cyclo(IN[dOrn]WL[dL]) (SMILES CC[C@H](C)[C@@H]1NC(=O)[C@@H](CC(C)C)NC(=O)[C@H](CC(C)C)NC(=O)[C@H](Cc2c[nH]c3ccccc23)NC(=O)[C@@H](CCCN)NC(=O)[C@H](CC(N)=O)NC1=O)”, for the setting “late stage modification step”, the step yield is listed as 65% and the “final HPLC purity” value was determined as 97%. “cyclo(IN[dR]WL[dL]) (SMILES CC[C@H](C)[C@@H]1NC(=O)[C@@H](CC(C)C)NC(=O)[C@H](CC(C)C)NC(=O)[C@H](Cc2c[nH]c3ccccc23)NC(=O)[C@@H](CCCNC(=N)N)NC(=O)[C@H](CC(N)=O)NC1=O)”: under “late stage modification step”, the step yield is recorded as 70% and the “crude HPLC purity” value is 96%. For “cyclo(IS(tBu)[dOrn]WL[dL]) (SMILES CC[C@H](C)[C@@H]1NC(=O)[C@@H](CC(C)C)NC(=O)[C@H](CC(C)C)NC(=O)[C@H](Cc2c[nH]c3ccccc23)NC(=O)[C@@H](CCCN)NC(=O)[C@H](COC(C)(C)C)NC1=O)”, under “late stage modification step”, the step yield was 30% and the “final HPLC purity” value worked out at 97%. For “cyclo(IS[dOrn]WL[dL]) (SMILES CC[C@H](C)[C@@H]1NC(=O)[C@@H](CC(C)C)NC(=O)[C@H](CC(C)C)NC(=O)[C@H](Cc2c[nH]c3ccccc23)NC(=O)[C@@H](CCCN)NC(=O)[C@H](CO)NC1=O)”, where the note is “late stage modification step”, the difficulty met entry is “incomplete deprotection of the t-Bu protecting group of serine”, the step yield is listed as 45% and the “final HPLC purity” value came to 98%. As to “cyclo(I[dL]VN[dOrn]W) (SMILES CC[C@H](C)[C@@H]1NC(=O)[C@H](Cc2c[nH]c3ccccc23)NC(=O)[C@@H](CCCN)NC(=O)[C@H](CC(N)=O)NC(=O)[C@H](C(C)C)NC(=O)[C@@H](CC(C)C)NC1=O)”, for the setting “late stage modification step”, the step yield stood at 96% and the “crude HPLC purity” value turned out to be 95%. As to “cyclo(I[dOrn][dOrn]WL[dPhe(4-Cl)]) (SMILES CC[C@H](C)[C@@H]1NC(=O)[C@@H](Cc2ccc(Cl)cc2)NC(=O)[C@H](CC(C)C)NC(=O)[C@H](Cc2c[nH]c3ccccc23)NC(=O)[C@@H](CCCN)NC(=O)[C@@H](CCCN)NC1=O)”, where the note is “late stage modification step”, the step yield is listed as 50% and the “final HPLC purity” value is reported as 96%. For the substance “cyclo(LWVN[dOrn][dL]) (SMILES CC(C)C[C@@H]1NC(=O)[C@@H](CC(C)C)NC(=O)[C@@H](CCCN)NC(=O)[C@H](CC(N)=O)NC(=O)[C@H](C(C)C)NC(=O)[C@H](Cc2c[nH]c3ccccc23)NC1=O)”, under “late stage modification step”, the step yield is 89% and the “final HPLC purity” value came to 97%. Regarding “cyclo(L[dA]VN[dOrn]W) (SMILES CC(C)C[C@@H]1NC(=O)[C@H](Cc2c[nH]c3ccccc23)NC(=O)[C@@H](CCCN)NC(=O)[C@H](CC(N)=O)NC(=O)[C@H](C(C)C)NC(=O)[C@@H](C)NC1=O)”, under “late stage modification step”, the step yield amounted to 72% and the “final HPLC purity” value came out at 92%. For the substance “cyclo(L[dL]MN[dOrn]W) (SMILES CSCC[C@@H]1NC(=O)[C@@H](CC(C)C)NC(=O)[C@H](CC(C)C)NC(=O)[C@H](Cc2c[nH]c3ccccc23)NC(=O)[C@@H](CCCN)NC(=O)[C@H](CC(N)=O)NC1=O)”, for the setting “late stage modification step”, the step yield came out at 74% and the “final HPLC purity” value is reported as 95%. “cyclo(L[dL]VN[dOrn]Y(Me)) (SMILES COc1ccc(C[C@@H]2NC(=O)[C@@H](CCCN)NC(=O)[C@H](CC(N)=O)NC(=O)[C@H](C(C)C)NC(=O)[C@@H](CC(C)C)NC(=O)[C@H](CC(C)C)NC2=O)cc1)”: under “late stage modification step”, the step yield worked out at 82% and the “final HPLC purity” value amounted to 99.9%. For the substance “cyclo(L[dL]VN[dOrn][dPhe(4-Cl)]) (SMILES CC(C)C[C@@H]1NC(=O)[C@@H](Cc2ccc(Cl)cc2)NC(=O)[C@@H](CCCN)NC(=O)[C@H](CC(N)=O)NC(=O)[C@H](C(C)C)NC(=O)[C@@H](CC(C)C)NC1=O)”, under “late stage modification step”, the step yield came out at 91% and the “final HPLC purity” value turned out to be 99.9%. Take “cyclo(L[dL]V[dOrn][dOrn]W) (SMILES CC(C)C[C@@H]1NC(=O)[C@H](Cc2c[nH]c3ccccc23)NC(=O)[C@@H](CCCN)NC(=O)[C@@H](CCCN)NC(=O)[C@H](C(C)C)NC(=O)[C@@H](CC(C)C)NC1=O)”: under “late stage modification step”, the step yield is 70% and the “crude HPLC purity” value turned out to be 97%. “cyclo(L[dL][NMeV]N[dOrn]W) (SMILES CC(C)C[C@@H]1NC(=O)[C@H](Cc2c[nH]c3ccccc23)NC(=O)[C@@H](CCCN)NC(=O)[C@H](CC(N)=O)NC(=O)[C@H](C(C)C)N(C)C(=O)[C@@H](CC(C)C)NC1=O)”: for the setting “late stage modification step”, the step yield stood at 71% and the “final HPLC purity” value came to 98%. For “cyclo(L[dNMeL]V[NMeN][dOrn]W) (SMILES CC(C)C[C@@H]1NC(=O)[C@H](Cc2c[nH]c3ccccc23)NC(=O)[C@@H](CCCN)NC(=O)[C@H](CC(N)=O)N(C)C(=O)[C@H](C(C)C)NC(=O)[C@@H](CC(C)C)N(C)C1=O)”, under “late stage modification step”, the step yield amounted to 63% and the “final HPLC purity” value worked out at 98%. As to “cyclo(L[dPhe(4-Cl)]VN[dOrn]W) (SMILES CC(C)C[C@@H]1NC(=O)[C@H](Cc2c[nH]c3ccccc23)NC(=O)[C@@H](CCCN)NC(=O)[C@H](CC(N)=O)NC(=O)[C@H](C(C)C)NC(=O)[C@@H](Cc2ccc(Cl)cc2)NC1=O)”, where the note is “late stage modification step”, the step yield is 75% and the “crude HPLC purity” value is 91%. For the substance “cyclo(N[dOrn]W[NMeL][dL][NMeV]) (SMILES CC(C)C[C@H]1NC(=O)[C@H](CC(C)C)N(C)C(=O)[C@H](Cc2c[nH]c3ccccc23)NC(=O)[C@@H](CCCN)NC(=O)[C@H](CC(N)=O)NC(=O)[C@H](C(C)C)N(C)C1=O)”, for the setting “late stage modification step”, the step yield is on record as 60% and the “final HPLC purity” value is recorded as 99.9%. For “cyclo(N[dOrn]W[dPhe(4-Cl)][dL]V) (SMILES CC(C)C[C@H]1NC(=O)[C@@H](Cc2ccc(Cl)cc2)NC(=O)[C@H](Cc2c[nH]c3ccccc23)NC(=O)[C@@H](CCCN)NC(=O)[C@H](CC(N)=O)NC(=O)[C@H](C(C)C)NC1=O)” the same measures were 80% and 99.9%. Substance “cyclo(Trp(Boc)-Leu-N-Me-D-Leu-Val-N-Me-Asn(Trt)-D-Orn(Boc))” gave a cyclisation yield of 60%. Turning to “cyclo(Val-N-Me-Asn(Trt)-D-Orn(Boc)-Trp(Boc)-N-Me-Leu-D-Leu)”, the cyclisation yield is reported as 80%.

As for cyclo(W(Boc)L[dL]IS(tBu)[dOrn](Boc)), the cyclisation yield worked out at 68%. For cyclo(W(Boc)[dOrn](Boc)AV[dL]L), the cyclisation yield was found to be 56%.

(Values after PMC5397059 (PLoS ONE, 2017).)
